Test results from US10881729B2, “Vaccine adjuvant compositions” (CHILDREN'S MEDICAL CENTER CORPORATION, priority 2014, dated 2021).
At least one compound was matched to its structure with a doubt left.

Tested on: newborn MoDCs
Experiment: TNF-α ELISA of supernatants of stimulated newborn MoDCs
Type: cell-based, human
Conditions: newborn vs adult MoDCs, FIG. 2
Protocol: Isolated monocytes were seeded in 75 cm^2 tissue culture dishes for 5 days at 37° C. in a humidified incubator at 5% CO2 with 10^6 cells/ml medium. Medium consisted of RPMI 1640 medium with L-glutamine (GIBCO—LIFE TECHNOLOGIES, Carlsbad, Calif., USA) supplemented with 1% Penicillin-Streptomycin-Glutamine (PSG) (Invitrogen—Life Technologies, Carlsbad, Calif., USA) and 10% AP. This was supplemented with recombinant human (rh) IL-4 and rhGM-CSF (50 ng/ml and 100 ng/ml, respectively; R&D Systems, Minneapolis, Minn., USA). Additional fresh media and cytokines were provided on day 3 of incubation. […]
Supernatants from MoDCs (GCI-DCs) stimulated for 18 hours in a humidified incubator (37° C., 5% CO2) with TLRAs, and/or CLRAs were analyzed for TNF-α production. […] Results were read on a Versamax microplate reader with SoftMax Pro Version 5 (both from Molecular Devices, Sunnyville, Calif., USA).
The inventors further evaluated the ability of these two combinations of agonists to activate newborn MoDCs by establishing concentration-response curves and by investigating whether the enhancement in TNF secretion can be observed with similar agonists that activate the same receptors. […]

CCOCc1nc2c(N)nc3ccccc3c2n1CC(C)(C)O [R848, resiquimod]
TNF production in response to single TLR agonist, newborn compared to adult MoDCs: less TNF
